Results as given in patent US4460576A (Kaken Pharmaceutical Co., Ltd., priority 1982, dated 1984).

assay: general procedure: solution-phase peptide synthesis; DCC; DCC/HOBt; azide method; mixed anhydride (isobutyl chloroformate); ONp activ; conditions: coupling step

Row | Substance | step yield
1 | Boc--Asp(OBzl)--Thr--Met--Arg(Mts)--Cys(MBzl)--Met--Val--Gly--Arg(Mts)--Val--Tyr--Arg(Mts)--Pro--Cys(MBzl)--Trp--Gln--Val--OBzl | 59% of theoretical amount
2 | Boc--Asp(OBzl)--Thr--Met--Arg(Mts)--Cys(MBzl)--Met--Val--Gly--OH | 78% of theoretical amount
3 | Boc--Cys(MBzl)--Trp--Gln--Val--OBzl | 83% of theoretical amount
4 | Z(OMe)--Arg(Mts)--Cys(MBzl)--Met--Val--Gly--OH | 69% of theoretical amount
5 | Z(OMe)--Arg(Mts)--Val--Tyr--Arg(Mts)--Pro--Cys(MBzl)--Trp--Gln--Val--OBzl | 56% of theoretical amount
6 | Z(OMe)--Arg(Mts)--Val--Tyr--Arg(Mts)--Pro--OH | 67% of theoretical amount
7 | Z(OMe)--Thr--Met--Arg(Mts)--Cys(MBzl)--Met--Val--Gly--OH | 90% of theoretical amount
